Test results as given in patent publication US8173697B2, “Alkoxyalkyl-substituted cyclic keto-enols” (Bayer CropScience AG, priority 2006, dated 2012).
Some entries share one result that the patent states for a list of compounds.

Experiments:
[1] = system: Myzus persicae; experiment: Myzus test (MYZUPE spray treatment); format: in vivo; conditions: 500 g/ha, sprayed leaf discs of Chinese cabbage
[2] = system: Tetranychus urticae; experiment: Tetranychus test, OP-resistant (TETRUR spray treatment); format: in vivo; conditions: 100 g/ha, bean plants
[3] = system: Spodoptera frugiperda; experiment: Spodoptera frugiperda test (SPODFR spray treatment); format: in vivo; conditions: 500 g/ha, sprayed leaf discs of maize
[4] = system: Lolium multiflorum; experiment: Pre-emergence herbicidal effect (Example No. 8); format: in vivo; conditions: 320 g/ha a.i., after 3 weeks
[5] = system: Setaria viridis; experiment: Pre-emergence herbicidal effect (Example No. 8); format: in vivo; conditions: 320 g/ha a.i., after 3 weeks
[6] = system: Phaedon cochleariae; experiment: Phaedon test (PHAECO spray treatment); conditions: 500 g/ha, sprayed leaf discs of Chinese cabbage
[7] = system: Echinocloa crus-galli; experiment: Post-emergence herbicidal effect (Example No. 8); format: in vivo; conditions: about 3 weeks
[8] = system: Lolium multiflorum; experiment: Post-emergence herbicidal effect (Example No. 8); format: in vivo; conditions: 320 g/ha a.i., about 3 weeks
[9] = system: Setaria viridis; experiment: Post-emergence herbicidal effect (Example No. 8); format: in vivo; conditions: about 3 weeks
[10] = system: Lucilia cuprina larvae; experiment: Lucilia cuprina test (LUCICU); format: in vivo; conditions: 100 ppm, treated horse meat
[11] = system: Boophilus microplus; experiment: Boophilus microplus test (BOOPMI injection); format: in vivo; conditions: 20 μg/animal, injection into the abdomen

Cc1ccc(-c2ccc(Cl)cc2)cc1C1=C(OC(=O)C(C)C)C(C)(C2CCCO2)NC1=O (mixture of isomers) [I-b-8]
≥ 80%: activity (effect in %, aphids killed) [1] | activity (effect in %, spider mites killed) [2] | activity (effect in %, caterpillars killed) [3] | pre-emergence effect (herbicidal effect in percent) [4] | pre-emergence effect (herbicidal effect in percent) [5] | activity (effect in %, beetle larvae killed) [6]

CCc1cc(-c2ccc(Cl)cc2)cc(C)c1C1=C(O)C(C)(COC)NC1=O (stereo not drawn) [I-a-2]
≥ 80%: activity (effect in %, spider mites killed) [2] | pre-emergence effect (herbicidal effect in percent) [4] | pre-emergence effect (herbicidal effect in percent) [5] | post-emergence effect (herbicidal effect in percent) ([7]; 320 g/ha a.i.) | post-emergence effect (herbicidal effect in percent) [8] | post-emergence effect (herbicidal effect in percent) ([9]; 320 g/ha a.i.) | activity (effect in %, beetle larvae killed) [6]

CCc1cc(-c2ccc(Cl)cc2)cc(CC)c1C1=C(O)C(C)(COC)NC1=O (stereo not drawn) [I-a-3]
≥ 80%: pre-emergence effect (herbicidal effect in percent) [4] | pre-emergence effect (herbicidal effect in percent) [5] | post-emergence effect (herbicidal effect in percent) ([7]; 320 g/ha a.i.) | post-emergence effect (herbicidal effect in percent) [8] | post-emergence effect (herbicidal effect in percent) ([9]; 320 g/ha a.i.)

CCc1cc(-c2ccc(C)cc2)cc(C)c1C1=C(O)C(C)(COC)NC1=O (stereo not drawn) [I-a-4]
≥ 80%: pre-emergence effect (herbicidal effect in percent) [4] | pre-emergence effect (herbicidal effect in percent) [5] | post-emergence effect (herbicidal effect in percent) ([7]; 320 g/ha a.i.) | post-emergence effect (herbicidal effect in percent) [8] | post-emergence effect (herbicidal effect in percent) ([9]; 320 g/ha a.i.)

COCC1(C)NC(=O)C(c2c(C)cc(-c3ccc(C)cc3)cc2C)=C1O (stereo not drawn) [I-a-5]
≥ 80%: pre-emergence effect (herbicidal effect in percent) [4] | pre-emergence effect (herbicidal effect in percent) [5] | post-emergence effect (herbicidal effect in percent) ([7]; 320 g/ha a.i.) | post-emergence effect (herbicidal effect in percent) [8] | post-emergence effect (herbicidal effect in percent) ([9]; 320 g/ha a.i.)

COCC1(C)NC(=O)C(c2cc(-c3ccc(F)c(F)c3)ccc2C)=C1O (stereo not drawn) [I-a-14]
≥ 80%: activity (effect in %, aphids killed) [1] | activity (effect in %, spider mites killed) [2] | activity (effect in %, caterpillars killed) [3] | activity (effect in %, beetle larvae killed) [6]

COCCC1(C)NC(=O)C(c2cc(-c3ccc(Cl)cc3)ccc2C)=C1O (stereo not drawn) [I-a-21]
≥ 80%: activity (effect in %, aphids killed) [1] | activity (effect in %, spider mites killed) [2] | activity (effect in %, caterpillars killed) [3] | activity (effect in %, beetle larvae killed) [6]

COCCC1(C)NC(=O)C(c2c(C)ccc(-c3ccc(Cl)cc3)c2C)=C1O (stereo not drawn) [I-a-24]
≥ 80%: activity (effect in %, aphids killed) [1] | activity (effect in %, spider mites killed) [2] | post-emergence effect (herbicidal effect in percent) ([7]; 80 g/ha) | post-emergence effect (herbicidal effect in percent) ([9]; 80 g/ha)

COCCC1(C)NC(=O)C(c2cc(-c3ccc(Cl)cc3)ccc2Cl)=C1O (stereo not drawn) [I-a-27]
≥ 80%: activity (effect in %, aphids killed) [1] | activity (effect in %, spider mites killed) [2] | activity (effect in %, caterpillars killed) [3] | activity (effect in %, beetle larvae killed) [6]

CCc1cc(-c2ccc(Cl)cc2)cc(C)c1C1=C(OC(=O)C(C)C)C(C)(COC)NC1=O (stereo not drawn) [I-b-1]
≥ 80%: pre-emergence effect (herbicidal effect in percent) [4] | pre-emergence effect (herbicidal effect in percent) [5] | post-emergence effect (herbicidal effect in percent) ([7]; 320 g/ha a.i.) | post-emergence effect (herbicidal effect in percent) [8] | post-emergence effect (herbicidal effect in percent) ([9]; 320 g/ha a.i.)

CCc1cc(-c2ccc(Cl)cc2)cc(CC)c1C1=C(OC(=O)C(C)C)C(C)(COC)NC1=O (stereo not drawn) [I-b-2]
≥ 80%: pre-emergence effect (herbicidal effect in percent) [4] | pre-emergence effect (herbicidal effect in percent) [5] | post-emergence effect (herbicidal effect in percent) ([7]; 320 g/ha a.i.) | post-emergence effect (herbicidal effect in percent) [8] | post-emergence effect (herbicidal effect in percent) ([9]; 320 g/ha a.i.)

COCC(=O)OC1=C(c2c(C)cc(-c3ccc(C)cc3)cc2C)C(=O)NC1(C)COC (stereo not drawn) [I-b-3]
≥ 80%: pre-emergence effect (herbicidal effect in percent) [4] | pre-emergence effect (herbicidal effect in percent) [5] | post-emergence effect (herbicidal effect in percent) ([7]; 320 g/ha a.i.) | post-emergence effect (herbicidal effect in percent) [8] | post-emergence effect (herbicidal effect in percent) ([9]; 320 g/ha a.i.)

CCc1cc(-c2ccc(C)cc2)cc(C)c1C1=C(OC(=O)C(C)C)C(C)(COC)NC1=O (stereo not drawn) [I-b-5]
≥ 80%: pre-emergence effect (herbicidal effect in percent) [4] | pre-emergence effect (herbicidal effect in percent) [5]

COCC1(C)NC(=O)C(c2cc(-c3ccc(F)cc3)ccc2C)=C1OC(=O)C(C)C (stereo not drawn) [I-b-6]
≥ 80%: activity (effect in %, aphids killed) [1] | activity (effect in %, spider mites killed) [2] | activity (effect in %, caterpillars killed) [3] | pre-emergence effect (herbicidal effect in percent) [4] | pre-emergence effect (herbicidal effect in percent) [5]

COCC1(C)NC(=O)C(c2cc(-c3ccc(Cl)cc3)ccc2C)=C1OC(=O)C1CC1 (stereo not drawn) [I-b-7]
≥ 80%: activity (effect in %, aphids killed) [1] | activity (effect in %, spider mites killed) [2] | activity (effect in %, caterpillars killed) [3] | pre-emergence effect (herbicidal effect in percent) [4] | pre-emergence effect (herbicidal effect in percent) [5] | post-emergence effect (herbicidal effect in percent) ([7]; 80 g/ha) | post-emergence effect (herbicidal effect in percent) ([9]; 80 g/ha) | activity (effect in %, beetle larvae killed) [6]

COCC1(C)NC(=O)C(c2cc(-c3ccc(F)c(F)c3)ccc2C)=C1OC(=O)C(C)C (stereo not drawn) [I-b-9]
≥ 80%: activity (effect in %, aphids killed) [1] | activity (effect in %, spider mites killed) [2] | activity (effect in %, caterpillars killed) [3] | activity (effect in %, beetle larvae killed) [6]

COCC1(C)NC(=O)C(c2cc(-c3ccc(Cl)cc3)ccc2C)=C1OC(=O)c1ccc(Cl)cc1 (stereo not drawn) [I-b-18]
≥ 80%: activity (effect in %, aphids killed) [1] | activity (effect in %, spider mites killed) [2] | activity (effect in %, caterpillars killed) [3] | activity (effect in %, beetle larvae killed) [6]

COCCC1(C)NC(=O)C(c2cc(-c3ccc(Cl)cc3)ccc2C)=C1OC(=O)C(C)C (stereo not drawn) [I-b-22]
≥ 80%: activity (effect in %, aphids killed) [1] | activity (effect in %, spider mites killed) [2] | activity (effect in %, caterpillars killed) [3] | pre-emergence effect (herbicidal effect in percent) [4] | pre-emergence effect (herbicidal effect in percent) [5] | post-emergence effect (herbicidal effect in percent) ([7]; 80 g/ha) | post-emergence effect (herbicidal effect in percent) ([9]; 80 g/ha)

COCCC1(C)NC(=O)C(c2c(C)ccc(-c3ccc(Cl)cc3)c2C)=C1OC(=O)C(C)C (stereo not drawn) [I-b-23]
≥ 80%: activity (effect in %, aphids killed) [1] | activity (effect in %, spider mites killed) [2] | activity (effect in %, caterpillars killed) [3] | activity (effect in %, beetle larvae killed) [6]

CCOC(=O)OC1=C(c2c(CC)cc(-c3ccc(Cl)cc3)cc2CC)C(=O)NC1(C)COC (stereo not drawn) [I-c-2]
≥ 80%: pre-emergence effect (herbicidal effect in percent) [4] | pre-emergence effect (herbicidal effect in percent) [5] | post-emergence effect (herbicidal effect in percent) ([7]; 320 g/ha a.i.) | post-emergence effect (herbicidal effect in percent) [8] | post-emergence effect (herbicidal effect in percent) ([9]; 320 g/ha a.i.)

CCOC(=O)OC1=C(c2c(C)cc(-c3ccc(C)cc3)cc2C)C(=O)NC1(C)COC (stereo not drawn) [I-c-3]
≥ 80%: pre-emergence effect (herbicidal effect in percent) [4] | pre-emergence effect (herbicidal effect in percent) [5]

CCOC(=O)OC1=C(c2c(C)cc(-c3ccc(C)cc3)cc2CC)C(=O)NC1(C)COC (stereo not drawn) [I-c-4]
≥ 80%: pre-emergence effect (herbicidal effect in percent) [4] | pre-emergence effect (herbicidal effect in percent) [5]

CCOC(=O)OC1=C(c2cc(-c3ccc(Cl)cc3)ccc2Cl)C(=O)NC1(C)COC (stereo not drawn) [I-c-6]
≥ 80%: activity (effect in %, aphids killed) [1] | activity (effect in %, spider mites killed) [2] | activity (effect in %, caterpillars killed) [3] | activity (destruction in %, larvae killed) [10] | activity (effect in %, no fertile eggs laid) [11] | pre-emergence effect (herbicidal effect in percent) [4] | pre-emergence effect (herbicidal effect in percent) [5] | activity (effect in %, beetle larvae killed) [6]

CCOC(=O)OC1=C(c2c(C)ccc(-c3ccc(Cl)cc3)c2C)C(=O)NC1(C)COC (stereo not drawn) [I-c-7]
≥ 80%: activity (effect in %, aphids killed) [1] | activity (effect in %, caterpillars killed) [3] | activity (destruction in %, larvae killed) [10] | activity (effect in %, no fertile eggs laid) [11] | pre-emergence effect (herbicidal effect in percent) [4] | pre-emergence effect (herbicidal effect in percent) [5] | activity (effect in %, beetle larvae killed) [6]

COCC1(C)NC(=O)C(c2c(C)ccc(-c3ccc(Cl)c(Cl)c3)c2C)=C1OC(=O)OC (stereo not drawn) [I-c-9]
≥ 80%: activity (effect in %, aphids killed) [1] | activity (effect in %, spider mites killed) [2] | activity (effect in %, beetle larvae killed) [6]

COCC1(C)NC(=O)C(c2cc(-c3ccc(F)cc3)ccc2Cl)=C1OC(=O)OC (stereo not drawn) [I-c-11]
≥ 80%: activity (effect in %, aphids killed) [1] | activity (effect in %, spider mites killed) [2] | activity (effect in %, beetle larvae killed) [6]

COC(=O)OC1=C(c2cc(-c3ccc(F)cc3)ccc2C)C(=O)NC1(C)C1CCCO1 (stereo not drawn) [I-c-12]
≥ 80%: activity (effect in %, aphids killed) [1] | activity (effect in %, spider mites killed) [2] | activity (effect in %, caterpillars killed) [3] | activity (effect in %, beetle larvae killed) [6]

COC(=O)OC1=C(c2cc(-c3ccc(Cl)cc3)ccc2Cl)C(=O)NC1(C)C1CCCO1 (stereo not drawn) [I-c-13]
≥ 80%: activity (effect in %, aphids killed) [1] | activity (effect in %, spider mites killed) [2] | activity (effect in %, caterpillars killed) [3] | activity (effect in %, beetle larvae killed) [6]

COCCC1(C)NC(=O)C(c2cc(-c3ccc(Cl)cc3)ccc2C)=C1OC(=O)OC (stereo not drawn) [I-c-20]
≥ 80%: activity (effect in %, aphids killed) [1] | activity (effect in %, spider mites killed) [2] | activity (effect in %, caterpillars killed) [3] | post-emergence effect (herbicidal effect in percent) ([7]; 80 g/ha) | post-emergence effect (herbicidal effect in percent) ([9]; 80 g/ha)

COCCC1(C)NC(=O)C(c2c(C)ccc(-c3ccc(Cl)cc3)c2C)=C1OC(=O)OC (stereo not drawn) [I-c-21]
≥ 80%: activity (effect in %, aphids killed) [1] | activity (effect in %, spider mites killed) [2] | activity (effect in %, caterpillars killed) [3] | pre-emergence effect (herbicidal effect in percent) [4] | pre-emergence effect (herbicidal effect in percent) [5]
